Laboratory results taken from PMC8349660.
Results are given in words; binding and its absence hold for the method and conditions named. In cells and extracts the contact can be indirect. Some entries that bind do so weakly or less than the wild type. For some of these results: Where a sequence is shown, tags or fusion partners need not be part of it. One block for each substance: values may come before it.

Key:
GST-p53 = GST-p53 (UniProt P04637); test: pull-down; GST fusion protein from E. coli BL21 on Glutathione-Sepharose 4B beads mixed with in vitro-transcribed/translated partner (TNT), binding buffer 2 h at 4°C, five washes, Western blot; only the target purified
[1] = target: T1, GST-fused BCAS3-WD40 domain (1-504 aa) (human) (UniProt Q9H6U6); test: as above
T1 sequence: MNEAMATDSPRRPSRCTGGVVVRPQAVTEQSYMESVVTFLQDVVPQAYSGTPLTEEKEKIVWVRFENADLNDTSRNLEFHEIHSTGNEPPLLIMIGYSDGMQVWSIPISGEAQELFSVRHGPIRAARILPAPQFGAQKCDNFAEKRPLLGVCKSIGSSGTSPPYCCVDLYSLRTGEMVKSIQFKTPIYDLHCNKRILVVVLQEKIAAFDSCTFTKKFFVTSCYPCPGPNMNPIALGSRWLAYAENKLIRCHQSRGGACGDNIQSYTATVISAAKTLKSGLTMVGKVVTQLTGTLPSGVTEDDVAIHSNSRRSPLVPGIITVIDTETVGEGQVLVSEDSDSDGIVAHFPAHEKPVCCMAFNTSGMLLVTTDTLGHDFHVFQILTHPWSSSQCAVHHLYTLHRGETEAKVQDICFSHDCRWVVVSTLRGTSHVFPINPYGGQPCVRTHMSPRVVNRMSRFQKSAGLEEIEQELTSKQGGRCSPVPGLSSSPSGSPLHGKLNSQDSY

GST-fused BCAS3 (human) = GST-fused BCAS3 (human) (UniProt Q9H6U6); test: as above
[2] = target: BCAS3 (breast cancer-amplified sequence 3) (human (endogenous in HEK 293T and MCF-7)) (UniProt Q9H6U6); test: co-IP; whole-cell lysates of HEK 293T and MCF-7 cells, specific antibodies or normal IgG overnight at 4°C, protein A/G Sepharose beads 2 h at 4°C, immunoblot

binding (GST-p53): binds
Substance: in vitro transcribed-translated BCAS3 (from UniProt Q9H6U6 1-928)

binding [1]: binds
binding (GST-fused BCAS3 (human)): binds
Substance: in vitro-transcribed/translated p53 (from UniProt P04637 1-393)

binding [2]: binds
Substance: p53 (from UniProt P04637 1-393)
